Results taken from PubChem BioAssay AID1487 (National Center for Advancing Translational Sciences (NCATS), 2009).
Where “and” joins values, the source holds several entries; their conditions need not be identical. Equal values may be shown once. This is one part of the list. Further columns of the screen follow, without active or inactive calls. Most of these compounds were active or inconclusive in the main read-out, so they are no random draw. Words in brackets tell the shape of the fitted curve; partial curves, single points and poor fits give uncertain potencies.

Assay: qHTS Assay for Modulators of Lamin A Splicing
Settings: HeLa LMNA splicing GFP/RFP minigene ratio, 48 h
Method in brief: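 S3 HeLa stable clones carrying a lamin A-EGFP splicing minigene plus DsRed2 were seeded at 600 cells/well in Opti-MEM with 2% FBS, pin-dosed and incubated 48 h at 37°C. Acumen cytometry (488 nm) gave the GFP/RFP total-intensity ratio.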

[1] = measured here: RFP viability control channel
[2] = measured here: GFP splicing reporter channel

For `CCC(Oc1ccccc1F)C(=O)N1CCC(c2nc3ccccc3s2)CC1` (stereo not given), the AC50 [1] was 0.126 µM [falling, full curve, poor fit].

In the case of `CCN(C(=O)COC(=O)c1cccc(-n2cnnn2)c1)C1CCCCC1`, the AC50 [2] is reported as 35.5 µM [rising, single point].

In the case of `N#Cc1c(-c2ccc(Cl)cc2)c(C#N)c(=O)n(N)c1N`, the AC50 [2] is reported as 25.1 µM [falling, single point].

With `COc1ccc(S(=O)(=O)Nc2ccccc2C(=O)NCc2ccco2)cc1Br` the AC50 [2] was 0.282 µM [rising, full curve, poor fit].

In the case of `O=C(NCc1ccncc1)c1ccc(Cl)c(S(=O)(=O)N2CCOCC2)c1`, the AC50 [2] is reported as 20 µM [rising, single point].

For `COc1cccc(NC(=O)CN2CCN(c3nc(-c4cccc(OC)c4)cs3)CC2)c1`, the AC50 [2] was 0.891 µM [rising, full curve, poor fit] and the AC50 [1] was 17.8 µM [rising, partial curve].

In the case of `COc1ccc(O)c(C(c2c(C)[nH][nH]c2=O)c2c(C)[nH][nH]c2=O)c1`, the AC50 [2] is reported as 0.251 µM [falling, full curve, poor fit].

With `N#Cc1cccc(-c2nc(NCc3cccs3)c3ccccc3n2)c1` the AC50 [2] was 11.2 µM [falling, partial curve] and the AC50 [1] was 17.8 µM [falling, single point].

For `CC(=O)Nc1ccccc1C(=O)C(=O)Nc1ccc(C)c(C)c1`, the AC50 [1] was 35.5 µM [rising, single point].

With `O=C(Cc1ccc(Cl)cc1)NC1CC1` the AC50 [1] was 11.2 µM [rising, partial curve, poor fit].

With `CCCCCOc1ccc(C(=O)NCC2(c3ccccc3)CCOCC2)cc1` the AC50 [2] was 11.2 µM [falling, single point] and the AC50 [1] was 12.6 µM [falling, partial curve, poor fit].

With `CC(C)c1ccc(C(=O)NCCCN2CCN(CCCNC(=O)c3ccc(C(C)C)cc3)CC2)cc1` the AC50 [2] was 20 µM [rising, single point] and the AC50 [1] was 35.5 µM [rising, single point].

In the case of `Cc1sc2ncnc(SCC(=O)c3cccs3)c2c1C`, the AC50 [1] is reported as 35.5 µM [rising, single point].

In the case of `COC(c1ccccc1)c1nnc(CCC(=O)NC2C3CC4CC(C3)CC2C4)o1` (stereo not given), the AC50 [1] is reported as 0.01 µM [falling, full curve, poor fit].

For `O=C(Nc1nc(-c2ccc(Br)cc2)cs1)c1cccnc1`, the AC50 [2] was 0.0316 µM [rising, partial curve, poor fit] and the AC50 [1] was 0.00447 µM [rising, full curve, poor fit].

In the case of `CC(C)(C)c1cc(C(=O)N/N=C/c2ccc(F)cc2)n(-c2ccccc2)n1`, the AC50 [1] is reported as 10 µM [rising, partial curve].

In the case of `Cc1nc(SCC(C)C)[nH]c(=O)c1Cc1ccccc1`, the AC50 [2] is reported as 0.00447 µM [rising, full curve, poor fit] and the AC50 [1] is reported as 35.5 µM [rising, partial curve, poor fit].

In the case of `CCc1nc2c(sc3nc4c(cc32)COC(C)(C)C4)c(=O)n1CCN(CC)CC`, the AC50 [1] is reported as 0.631 µM [rising, full curve].

With `Cc1ccc(-c2csc3ncn(-n4c(C)ccc4C)c(=O)c23)o1` the AC50 [1] was 15.8 µM [falling, partial curve, poor fit].

With `c1coc(CNc2nc3sc4c(c3c3ncnn23)CCCC4)c1` the AC50 [2] was 35.5 µM [rising, single point] and the AC50 [1] was 35.5 µM [rising, single point].

With `COc1ccc(NC(=O)/C(Cl)=C(/Cl)S(=O)Cc2ccc(C)cc2)cn1` (stereo not given) the AC50 [2] was 0.794 µM [falling, full curve] and the AC50 [1] was 12.6 µM [falling, partial curve].

With `N#CC1=C(c2ccccc2)/C(=C/c2ccccc2)OC1=O` the AC50 [2] was 11.2 µM [falling, partial curve] and the AC50 [1] was 17.8 µM [falling, partial curve].

With `CC(=O)N1CCc2cc(S(=O)(=O)NCCC(=O)NC3CCCc4ccccc43)ccc21` (stereo not given) the AC50 [1] was 15.8 µM [rising, single point].

For `O=S(=O)(c1ccc(Cl)cc1)c1snnc1-c1ccccc1`, the AC50 [2] was 35.5 µM [falling, single point] and the AC50 [1] was 20 µM [falling, single point].

In the case of `CSc1cccc(NC(=O)CCCOc2ccc(Cl)cc2Cl)c1`, the AC50 [2] is reported as 31.6 µM [rising, single point] and the AC50 [1] is reported as 31.6 µM [rising, single point].

For `Cn1cc(CNCc2cnc3ccccn23)c(-c2ccc(Oc3ccccc3)cc2)n1`, the AC50 [2] was 6.31 µM [falling, partial curve] and the AC50 [1] was 3.16 µM [falling, full curve, poor fit].

With `COc1cc(NS(=O)(=O)c2ccc(NC(C)=O)cc2)cc(OC)c1` the AC50 [1] was 10 µM [rising, partial curve].

With `CCNc1ccc(P(=O)(c2ccccc2)c2ccccc2)cc1` the AC50 [1] was 0.00316 µM [falling, full curve, poor fit].

With `Cc1ccc(C)n1NC(=O)c1ccccc1[N+](=O)[O-]` the AC50 [2] was 2.51 µM [falling, single point].

For `CNC(=O)c1c(NC(=O)c2nc3ccccc3s2)sc2c1CCC2`, the AC50 [1] was 35.5 µM [rising, single point].

With `COc1cccc(-c2cc(C(F)(F)F)c3c(N)c(C#N)sc3n2)c1` the AC50 [2] was 0.562 µM [rising, full curve, poor fit].

With `O=C(CNc1cc(S(=O)(=O)N2CCCC2)ccc1OCC(F)(F)F)Nc1ccc(SC(F)F)cc1` the AC50 [2] was 3.16 µM [rising, full curve] and the AC50 [1] was 14.1 µM [rising, single point].

For `CNCCCN1c2ccccc2CCc2ccccc21`, the AC50 [2] was 8.91 µM [falling, partial curve] and the AC50 [1] was 20 µM [rising, partial curve].

With `Cc1oc(-c2ccc(Cl)cc2)nc1CS(=O)CC(=O)N1CCN(c2cccc(C(F)(F)F)c2)CC1` (stereo not given) the AC50 [2] was 17.8 µM [falling, single point] and the AC50 [1] was 17.8 µM [falling, partial curve, poor fit].

In the case of `Cc1ccc(Nc2nc(=O)c3cccnc3s2)cc1`, the AC50 [1] is reported as 17.8 µM [rising, partial curve, poor fit].

For `COc1cc(/C=N/Nc2nc(Nc3ccccc3)nc(-n3nc(C)cc3C)n2)cc(OC)c1OC`, the AC50 [2] was 20 µM [falling, single point] and the AC50 [1] was 35.5 µM [falling, single point].

In the case of `Cc1ccc(CN2C(=O)N/C(=C/c3cc(C)n(-c4ccccn4)c3C)C2=O)cc1`, the AC50 [1] is reported as 35.5 µM [rising, single point].

With `O=c1cc(-c2ccccc2Cl)oc2c(NS(=O)(=O)c3cc(Cl)cc(Cl)c3O)ccc(O)c12` the AC50 [1] was 3.98 µM [rising, full curve].

For `O=C(O)C1(S(=O)(=O)CCC(F)=C(F)F)CC1`, the AC50 [1] was 2.82 µM [falling, partial curve, poor fit].

In the case of `O=C(C1COc2ccccc2O1)N1CCN(c2nc3ccc(F)cc3s2)CC1` (stereo not given), the AC50 [1] is reported as 20 µM [falling, partial curve, poor fit].

With `NC(=O)C1CCN(C(=O)c2cccc(NC(=O)c3nsc4ccccc34)c2)CC1` the AC50 [2] was 0.631 µM [rising, full curve, poor fit].

With `O=C(O)c1cc(-n2cccc2)ccc1N1CCOCC1` the AC50 [2] was 3.98 µM [rising, single point].

For `N#Cc1nc(Cc2cccc3ccccc23)oc1NCCN1CCCCC1`, the AC50 [1] was 35.5 µM [rising, single point].

For `O=C(C1COc2ccccc2O1)N(Cc1cccnc1)c1nc2ccc(Cl)cc2s1` (stereo not given), the AC50 [2] was 0.00447 µM [falling, full curve, poor fit].

With `COc1ccc(S(=O)(=O)N(C)C)cc1NC(=O)CSc1nncs1` the AC50 [1] was 20 µM [rising, partial curve, poor fit].

With `Cc1ccccc1-n1ncc2c([N+](=O)[O-])cc([N+](=O)[O-])cc21` the AC50 [2] was 35.5 µM [falling, single point] and the AC50 [1] was 25.1 µM [falling, single point].

With `Cc1c(Cl)cccc1N=c1c([N+](=O)[O-])nn(-c2ccccc2)n1O` the AC50 [2] was 12.6 µM [rising, partial curve] and the AC50 [1] was 7.08 µM [rising, partial curve].

For `Clc1ccccc1-c1ccc2ncnc(NCCN3CCOCC3)c2c1`, the AC50 [2] was 1.12 µM [falling, partial curve].

In the case of `c1ccn2cc(CSc3nnc4ccccn34)nc2c1`, the AC50 [1] is reported as 0.112 µM [rising, full curve, poor fit].

In the case of `CCn1ncc(C2=NOC(C(=O)Nc3ccccc3C(=O)OC)C2)c1C` (stereo not given), the AC50 [2] is reported as 20 µM [rising, single point] and the AC50 [1] is reported as 22.4 µM [rising, partial curve].

For `O=C1N/C(=C/c2ccc(Br)cc2)C(O)=C1C=NCc1ccccc1`, the AC50 [1] was 5.62 µM [rising, single point].

In the case of `CN(C(=O)COC(=O)c1c2c(nc3ccccc13)/C(=C/c1cccc([N+](=O)[O-])c1)CCC2)C1CCS(=O)(=O)C1` (stereo not given), the AC50 [2] is reported as 35.5 µM [falling, single point] and the AC50 [1] is reported as 20 µM [falling, single point].

With `CCN1CCN(Cc2ccc(NC(=O)Nc3ccc(SC)cc3)cc2)CC1` the AC50 [1] was 5.62 µM [rising, partial curve, poor fit].

With `CCC(C)n1ncn(-c2ccc(N3CCN(c4ccc(OCC5COC(Cn6cncn6)(c6ccc(Cl)cc6Cl)O5)cc4)CC3)cc2)c1=O` (stereo not given) the AC50 [2] was 35.5 nM [rising, full curve] and 1.58 µM [rising, full curve] and the AC50 [1] was 4.47 µM [rising, full curve, poor fit].
